No constants are given. Whether binding was seen depends on the method and setting. Binding seen in cells or lysates may run through a third protein. Where a sequence is shown, tags or fusion partners need not be part of it.
Target: T1, GST-tagged S100A3 (human) (UniProt P33764)
T1 sequence: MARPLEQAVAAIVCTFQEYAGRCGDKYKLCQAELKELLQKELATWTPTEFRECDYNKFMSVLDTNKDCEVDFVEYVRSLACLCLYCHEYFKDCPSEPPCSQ
Assay: pull-down; GST-S100A3 (GST as negative control) conjugated to Glutathione-Sepharose beads, incubated with extracts of transfected COS-7 cells; western blot of the precipitates; only the target purified

The chains behind the UniProt entries cited, without tags or fusion partners.
UniProt P29590: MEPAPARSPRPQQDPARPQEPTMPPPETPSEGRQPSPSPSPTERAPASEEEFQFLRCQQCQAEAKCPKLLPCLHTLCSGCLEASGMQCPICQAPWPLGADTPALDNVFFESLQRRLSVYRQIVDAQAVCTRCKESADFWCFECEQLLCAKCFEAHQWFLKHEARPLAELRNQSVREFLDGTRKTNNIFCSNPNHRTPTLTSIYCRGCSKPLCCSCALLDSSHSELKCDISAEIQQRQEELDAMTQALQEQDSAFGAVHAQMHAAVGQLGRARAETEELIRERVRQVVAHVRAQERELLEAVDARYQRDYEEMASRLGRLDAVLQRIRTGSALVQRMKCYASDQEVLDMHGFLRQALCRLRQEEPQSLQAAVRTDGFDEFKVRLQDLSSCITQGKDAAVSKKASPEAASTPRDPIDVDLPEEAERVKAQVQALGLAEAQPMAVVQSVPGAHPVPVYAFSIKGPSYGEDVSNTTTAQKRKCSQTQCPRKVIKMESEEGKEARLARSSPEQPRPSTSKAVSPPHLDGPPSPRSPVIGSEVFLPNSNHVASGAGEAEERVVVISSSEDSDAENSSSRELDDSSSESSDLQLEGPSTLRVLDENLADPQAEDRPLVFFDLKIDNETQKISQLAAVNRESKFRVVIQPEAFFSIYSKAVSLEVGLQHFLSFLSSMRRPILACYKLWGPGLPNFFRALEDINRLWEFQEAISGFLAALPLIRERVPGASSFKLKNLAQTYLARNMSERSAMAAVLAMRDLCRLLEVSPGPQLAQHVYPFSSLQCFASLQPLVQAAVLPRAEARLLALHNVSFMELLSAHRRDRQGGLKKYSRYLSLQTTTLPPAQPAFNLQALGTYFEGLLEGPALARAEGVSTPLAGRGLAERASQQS
UniProt P19793: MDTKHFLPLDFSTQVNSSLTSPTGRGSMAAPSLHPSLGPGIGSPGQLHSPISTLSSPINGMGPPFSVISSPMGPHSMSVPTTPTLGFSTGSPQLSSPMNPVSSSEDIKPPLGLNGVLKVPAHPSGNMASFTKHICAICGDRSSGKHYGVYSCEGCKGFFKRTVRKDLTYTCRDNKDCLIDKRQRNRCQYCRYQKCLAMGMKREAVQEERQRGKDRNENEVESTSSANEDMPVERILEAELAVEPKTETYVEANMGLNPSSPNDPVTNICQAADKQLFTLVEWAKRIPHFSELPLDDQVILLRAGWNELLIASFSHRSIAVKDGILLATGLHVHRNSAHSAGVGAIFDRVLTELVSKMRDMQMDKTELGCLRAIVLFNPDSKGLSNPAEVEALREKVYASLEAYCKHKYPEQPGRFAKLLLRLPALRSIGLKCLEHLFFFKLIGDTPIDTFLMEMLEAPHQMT

binding | Substance
no binding | PML (from UniProt P29590 1-882)
no binding | RXRα (from UniProt P19793 1-462) (receptor)

Reference: paper PMC6484772
